PubChem BioAssay AID504793 | Drosophila RNAi Screening Center | 2011
Aim: 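Whole-genome screen for parts of the DNA damage checkpoint at G2/M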 (primary screen). Cells: Drosophila S2R+ cells. Reagent: long dsRNA against Drosophila genes, about 0.25 µg dsRNA per well. Timing: 4 days of dsRNA, then 4 hours of drug before read-out. Challenge: doxorubicin 0.5 µM for 4 hours to cause double-strand breaks, in cells also given a low, harmless dose of dsRNA against nbs to sensitise the assay. Measurement: 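Mitotic index as the number of phospho-histone H3-positive cells in each well following doxorubicin, given as raw counts without normalisation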. Direction: mitotic cells: higher = more cells in mitosis, weaker G2 arrest. Hit rule: 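a call needs confirmation in secondary tests, with other dsRNAs and a check of mitotic timing without damage, not just a high primary count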. Meaning of the calls: active = confirmed in follow-up tests; inactive = not confirmed.
In all, the deposit lists about 23,000 reagents; below is an unselected part of those that have a named target and a result. In the full data, 62 (0.27%) are marked active. 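Calls come from follow-up tests whose scores are not deposited, so confirmed genes may have low counts here; counts are not normalised per plate.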 Raw values vary from plate to plate and are shown uncorrected. The numbers tell different reagents against one gene apart. No sequences are given here.

ACOX1 (GeneID 37028) #1: mitotic cells, replicate 1 = 10; call = inactive
ACOX1 (GeneID 37028) #2: mitotic cells, replicate 1 = 5; call = inactive
GstO1 (GeneID 38975) #1: mitotic cells, replicate 1 = 10; call = inactive
GstO1 (GeneID 38975) #2: mitotic cells, replicate 1 = 3; call = inactive
Rh4 (GeneID 39887) #1: mitotic cells, replicate 1 = 8; call = inactive
Rh4 (GeneID 39887) #2: mitotic cells, replicate 1 = 6; call = inactive
CG9992 (GeneID 32605) #1: mitotic cells, replicate 1 = 10; call = inactive
CG9992 (GeneID 32605) #2: mitotic cells, replicate 1 = 8; call = inactive
CG12121 (GeneID 31866): mitotic cells, replicate 1 = 9; call = inactive
CG17982 (GeneID 31739): mitotic cells, replicate 1 = 10; call = inactive
Cyp12a4 (GeneID 42294) #1: mitotic cells, replicate 1 = 8; call = inactive
Cyp12a4 (GeneID 42294) #2: mitotic cells, replicate 1 = 5; call = inactive
Dus1 (GeneID 33190): mitotic cells, replicate 1 = 8; call = inactive
CG17683 (GeneID 3355011) #1: mitotic cells, replicate 1 = 2; call = inactive
CG17683 (GeneID 3355011) #2: mitotic cells, replicate 1 = 5; call = inactive
CG14763 (GeneID 35757) #1: mitotic cells, replicate 1 = 9; call = inactive
CG14763 (GeneID 35757) #2: mitotic cells, replicate 1 = 19; call = inactive
raptor (GeneID 31543): mitotic cells, replicate 1 = 12; call = inactive
ebd1 (GeneID 38082) #1: mitotic cells, replicate 1 = 7; call = inactive
ebd1 (GeneID 38082) #2: mitotic cells, replicate 1 = 6; call = inactive
mRpL16 (GeneID 31150) #1: mitotic cells, replicate 1 = 2; call = inactive
mRpL16 (GeneID 31150) #2: mitotic cells, replicate 1 = 8; call = inactive
dsf (GeneID 33823) #1: mitotic cells, replicate 1 = 12; call = inactive
dsf (GeneID 33823) #2: mitotic cells, replicate 1 = 11; call = inactive

Reformatted: results already given
Rh4 (GeneID 39887) #2
- mitotic cells, replicate 1: 6
- call: inactive

CG9992 (GeneID 32605) #1
- mitotic cells, replicate 1: 10
- call: inactive

CG9992 (GeneID 32605) #2
- mitotic cells, replicate 1: 8
- call: inactive
